13 compounds from the supplement of paper PMC8551327 can be followed below.

This is one part of the list. Cut-off read from the data, not from the text of the source: active = 1.25 or more and inactive = the rest. Many values rest on one well or one pass, so single values are uncertain.

The assay relates to Kcc2-LUC knock-in mouse primary cortical neurons (Kcc2 promoter reporter). Nature of the assay: Kcc2 promoter-driven luciferase activity relative to vehicle control (fold of vehicle (ratio)); higher = stronger Kcc2 promoter activation (Kcc2 expression enhancer). The following applies: 100 nM; 48 h.
With `Nc1ccccc1N` [O-Phenylenediamine], the “Kcc2 promoter-driven luciferase activity” value was active: 1.31.
For `CC(C)(C)C1CCC2(CC1)CCN(CCCN1CCOCC1)CC2` the value was inactive: 0.48; for `CC(C)C1(Cl)CCC2C3(C)CCCC(C)(C(=O)O)C3CC(Cl)C2(Cl)C1Cl` (stereo not drawn), inactive: 1; for `COc1ccc2c(c1)O[C@H]1c3ccc(O)cc3OC[C@@H]21` [Medicarpin], inactive: 1.12.
In the case of `COc1cc(C)c2c(c1C=O)Oc1c(c(C)c(O)c3c1C(O)OC3=O)OC2=O` (stereo not drawn) [Stictic Acid], the “Kcc2 promoter-driven luciferase activity” value is inactive: 0.56.
Regarding `O=c1c(O)c(-c2ccc(O)c(O)c2)oc2cc(O)ccc12` [Fisetin], the “Kcc2 promoter-driven luciferase activity” value was inactive: 1.11.
With `C=C1C(=O)OC2CC1C(O)C/C(C)=C/CC/C(C)=C/C(O)CC2C` (stereo not drawn) [Crassin], the “Kcc2 promoter-driven luciferase activity” value is inactive: 1.21.
As for `O=C(O)CCCCCCCC(O)C(O)CCCCCCO` (stereo not drawn) [Aleuritic Acid], the “Kcc2 promoter-driven luciferase activity” value was inactive: 1.1.
With `C[C@H](CN1CC(=O)NC(=O)C1)N1CC(=O)NC(=O)C1` [Razoxane, (R)-Isomer] the figure was inactive: 1.07; with `Nc1nc(SCc2ccccc2Cl)c2[nH]cnc2n1` [6-[(2-Chlorophenyl)methylsulfanyl]-7H-purin-2-amine], inactive: 0.97.
Take `COC(=O)Nc1nc2ccc(Br)cc2[nH]1` [methyl 6-bromo-1H-benzo[d]imidazol-2-ylcarbamate]: the “Kcc2 promoter-driven luciferase activity” value is inactive: 0.83.
Regarding `CCCCCCCC/C=C\CCCCCCCC(=O)O` [Oleic acid], the “Kcc2 promoter-driven luciferase activity” value is active: 1.42.
As to `COc1cc(-c2cc(=O)c3c(OC)c(OC)c(OC)c(OC)c3o2)cc(OC)c1OC` [5,6,7,8,3',4',5'-heptamethoxyflavone], the “Kcc2 promoter-driven luciferase activity” value is inactive: 0.82.
